# From PubChem BioAssay AID651768 (National Center for Advancing Translational Sciences (NCATS), 2012)
# Sequences of proteins named here, by UniProt entry; tags and fusion partners are left off.
# UniProt Q14191, whole entry, looked up: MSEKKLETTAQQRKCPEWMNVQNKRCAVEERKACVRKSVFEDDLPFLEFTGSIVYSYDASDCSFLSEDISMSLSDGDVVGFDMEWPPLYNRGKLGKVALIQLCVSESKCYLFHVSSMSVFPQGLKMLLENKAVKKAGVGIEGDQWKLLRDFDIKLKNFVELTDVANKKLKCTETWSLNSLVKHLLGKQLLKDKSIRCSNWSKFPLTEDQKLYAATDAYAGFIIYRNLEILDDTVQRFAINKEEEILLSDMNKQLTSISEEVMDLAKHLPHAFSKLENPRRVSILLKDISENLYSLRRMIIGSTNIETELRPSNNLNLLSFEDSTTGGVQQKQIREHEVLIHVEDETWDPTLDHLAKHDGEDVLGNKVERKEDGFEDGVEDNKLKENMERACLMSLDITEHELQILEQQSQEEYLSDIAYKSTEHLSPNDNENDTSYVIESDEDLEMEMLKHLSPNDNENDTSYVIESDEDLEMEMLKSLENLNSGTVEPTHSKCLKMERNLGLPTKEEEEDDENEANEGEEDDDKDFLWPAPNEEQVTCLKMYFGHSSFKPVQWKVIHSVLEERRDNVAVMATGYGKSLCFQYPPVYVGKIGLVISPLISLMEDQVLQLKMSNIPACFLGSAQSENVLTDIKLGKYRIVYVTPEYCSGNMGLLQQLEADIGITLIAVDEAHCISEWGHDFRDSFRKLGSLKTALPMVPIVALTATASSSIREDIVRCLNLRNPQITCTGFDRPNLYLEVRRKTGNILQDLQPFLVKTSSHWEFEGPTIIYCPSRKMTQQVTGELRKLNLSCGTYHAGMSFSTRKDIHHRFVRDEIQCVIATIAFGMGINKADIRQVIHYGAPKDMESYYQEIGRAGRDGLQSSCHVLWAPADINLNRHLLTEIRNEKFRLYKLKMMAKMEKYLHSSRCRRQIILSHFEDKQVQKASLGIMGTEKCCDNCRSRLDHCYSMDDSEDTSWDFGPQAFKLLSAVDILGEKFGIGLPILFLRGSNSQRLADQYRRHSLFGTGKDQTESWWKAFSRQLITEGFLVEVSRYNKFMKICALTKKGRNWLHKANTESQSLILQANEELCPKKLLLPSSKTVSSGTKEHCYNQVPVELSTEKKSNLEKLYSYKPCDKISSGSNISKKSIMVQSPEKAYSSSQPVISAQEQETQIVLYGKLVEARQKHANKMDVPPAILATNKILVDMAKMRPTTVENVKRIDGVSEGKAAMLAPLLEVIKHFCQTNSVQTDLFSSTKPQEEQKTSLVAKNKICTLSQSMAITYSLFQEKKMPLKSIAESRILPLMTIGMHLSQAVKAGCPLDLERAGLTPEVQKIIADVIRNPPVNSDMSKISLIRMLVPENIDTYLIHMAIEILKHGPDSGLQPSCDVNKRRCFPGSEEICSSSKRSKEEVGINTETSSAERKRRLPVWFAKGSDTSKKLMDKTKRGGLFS
# About 1,700 (0.47%) of roughly 360,000 compounds were called active. The inconclusive results got no clear call from the source; some entries with a clear call stand among them for comparison. Calls follow the shape of the dose curve; as a rule, active = well fitted inhibition curve with a large enough effect; inconclusive = small, poorly fitted or top-dose-only effect; inactive = no such curve, though single readings can be large or run the other way. Potencies beside an inconclusive call are fits to weak or partial responses and may not hold up.
# Target: Bifunctional 3'-5' exonuclease/ATP-dependent helicase WRN (Homo sapiens) (UniProt Q14191)
# Experiment: qHTS for Inhibitors of WRN Helicase; also: nearly all actives have a fitted effect of over 55% in size
# Details: WRN helicase unwinding, fluorescent forked duplex, kinetic; activity change, negative = inhibition: at 114 µM (top of the series) unless noted
# How it was run: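 Kinetic red-fluorescence monitoring (525/598 nm) tracks WRN helicase activity after 100 nM fluorophore-quencher forked duplex and 2 mM ATP are added to 20 nM enzyme pretreated 15 min at room temperature with compound.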
# % is scaled to controls: 0 for no effect and ±100 for the full control effect; potency is read from the fitted curve at half-maximal effect.
Structure (SMILES),"activity change, negative = inhibition",Potency
Cc1ccc2nc(N3C(=O)C(O)=C(C(=O)c4ccc(C)o4)C3c3ccc(O)cc3)sc2c1 (stereo not given),inactive: -1.75%,–
CCN1/C(=C/C(=S)Nc2ccccc2)Sc2ccccc21,–,"inconclusive: 56.2 µM [inhibitor, partial curve]"
O=C(Nc1cccnc1)c1ccc(Cl)c(S(=O)(=O)N2CCc3ccccc32)c1,–,"inconclusive: 79.4 µM [inhibitor, single point]"
Brc1cc2c(cc1Br)OCCOCCOCCOCCO2,–,"inconclusive: 89.1 µM [inhibitor, single point]"
CCN(CC)S(=O)(=O)c1ccc(N2CCOCC2)c(NC(=O)c2ccccc2)c1,inactive: 0.152%,–
Cc1ccc(-c2nn3c(C)nnc3s2)cc1NC(=O)c1ccc(-c2cccc(Cl)c2)o1,–,active: 50.1 µM
CS(=O)(=O)N1N=C(c2cccs2)CC1c1ccccc1O (stereo not given),–,"inconclusive: 56.2 µM [inhibitor, single point]"
COc1c(C(CC(C)C)OC(C)=O)ccc2c1C(=O)OCc1cc(C)cc(O)c1O2 (stereo not given),inactive: 0.0396%,–
CC(=O)N(c1ccc2oc(=O)sc2c1)S(=O)(=O)c1ccccc1,–,"inconclusive: 15.8 µM [inhibitor, full curve, poor fit]"
COc1ccccc1NS(=O)(=O)c1cccc(C(=O)N/N=C/c2ccc(N3CCOCC3)cc2)c1,–,"inconclusive: 10 µM [inhibitor, partial curve]"
CC(C)(C)OCC(O)CN1CCN(C(=O)c2ccccc2)CC1 (stereo not given),–,"inconclusive: 39.8 µM [inhibitor, single point]"
Cc1cc(NC(=O)c2cc([N+](=O)[O-])ccc2Cl)no1,–,"inconclusive: 8.91 µM [inhibitor, full curve, poor fit]"
O=C1NC(=O)/C(=C\c2ccc(O)cc2O)S1,–,active: 35.5 µM
N#Cc1c(SCC(=O)Nc2cccc(C(F)(F)F)c2)sc2c(O)cc(=O)[nH]c12,–,"inconclusive: 44.7 µM [inhibitor, partial curve]"
Nc1c(C(=O)Nc2ccc(S(=O)(=O)N3CCCC3)cc2)sc2nc3ccc(OC(F)(F)F)cc3cc12,–,"inconclusive: 79.4 µM [inhibitor, partial curve]"
CCOC(=O)c1ccc(S(=O)(=O)Nc2nc3cc(S(=O)(=O)NC4=NCCCCC4)ccc3s2)cc1,–,"inconclusive: 79.4 µM [inhibitor, partial curve]"
CCN1C(=O)[C@H]2[C@@H](c3ccc(C)cc3)N[C@]3(CCCN(Cc4ccccc4)C3=O)[C@H]2C1=O,inactive: -4.94%,–
O=C(c1cc2ccccc2oc1=O)N(Cc1cccs1)Cc1cccs1,inactive: 0.0188%,–
COc1ccnc(Oc2ccccc2)c1C(=O)N/C=N/OCc1ccc(F)cc1Cl,inactive: -33.9%,–
O=C(C=Cc1ccco1)c1ccc2ccccc2c1,–,"inconclusive: 22.4 µM [inhibitor, single point]"
COc1ccc(NC(=O)CN(C)C(=O)c2cccc(-n3cccc3)c2)cc1,–,active: 44.7 µM
COc1ccc(C2CC2/C(=N/O)c2ccccc2)cc1 (stereo not given),–,"inconclusive: 79.4 µM [inhibitor, single point]"
Cc1ccc(S(=O)(=O)N(C)C)cc1NC(=O)CN1C(=O)NC(Cc2ccccc2)C1=O (stereo not given),–,"inconclusive: 39.8 µM [inhibitor, single point]"

# An excerpt of these results, with bars between the fields.
Structure (SMILES) | activity change, negative = inhibition | Potency
COc1ccc(NC(=O)CN(C)C(=O)c2cccc(-n3cccc3)c2)cc1 | – | active: 44.7 µM
COc1ccc(C2CC2/C(=N/O)c2ccccc2)cc1 (stereo not given) | – | inconclusive: 79.4 µM [inhibitor, single point]

# Later entries:

Structure (SMILES),"activity change, negative = inhibition",Potency
CCOc1ccccc1C(O)C1=CC(=O)c2ccccc2C1=O (stereo not given),–,"inconclusive: 39.8 µM [inhibitor, partial curve]"
CCCSc1nnc2nc3c(nn12)c1ccccc1n3C,–,"inconclusive: 17.8 µM [inhibitor, full curve]"
CCN1CC(O)=C(c2nc3ccccc3s2)C1=N,–,"inconclusive: 89.1 µM [inhibitor, single point]"
COc1ccc(/C=N/NC(=O)c2ccc(-c3ccccc3)cc2)cc1O,inactive: -28%,–
O=C(Nc1ccc(S(=O)(=O)N2CCCCC2)cc1)c1ccc(=O)[nH]c1,inactive: 5.45%,–
COc1ccc(C(=O)/C=C/c2ccc3c(c2)OCCO3)cc1,inactive: -4.54%,–
COc1ccc(/C(C)=N/N=C2/NC(=O)CC(C(=O)O)S2)cc1 (stereo not given),inactive: -1.77%,–
O=C1[C@H]2[C@@H](c3ccc(F)cc3)N3C(=O)N(c4cccc(Cl)c4)C(=O)[C@@]3(Cc3ccc(Cl)cc3)[C@H]2C(=O)N1C1CCCCC1,–,"inconclusive: 2.82 µM [inhibitor, partial curve, poor fit]"
CN1CCN(S(=O)(=O)c2cccc(C(=O)Nc3sccc3C#N)c2)CC1,–,"inconclusive: 44.7 µM [inhibitor, partial curve]"
COc1ccc(N(C(=O)c2ccccc2)S(=O)(=O)c2cccs2)cc1,–,"inconclusive: 39.8 µM [inhibitor, single point]"
CC(=O)N1CCN(C(=O)c2cccc(S(=O)(=O)N3c4ccccc4CC3C)c2)CC1 (stereo not given),inactive: -6.21%,–
O=C1CSC(=S)N1Nc1ccccc1,–,"inconclusive: 56.2 µM [inhibitor, partial curve, poor fit]"
CC(=O)Nc1ccc(NC(=O)CSc2nnc(NC(=O)C3CC(=O)N(c4ccc(F)cc4)C3)s2)cc1 (stereo not given),inactive: -27.6%,–
O=C(N/N=C/c1ccc(O)cc1O)C1CC1,inactive: -3.69%,–
O=C1C=CC(=Nc2ccc(F)cc2)O1,inconclusive: -70.2% [inhibitor],–
N#C/C(=C\C1=C(N2CCOCC2)C(=C\c2ccccc2)/CC1)C(=O)Nc1ccccc1F,–,active: 15 µM
O=C(Cc1cccs1)OCC(=O)c1ccco1,–,"inconclusive: 15 µM [inhibitor, partial curve]"
CCC1C/C(=C\c2cccnc2)C(=O)/C(=C/c2cccnc2)C1 (stereo not given),–,"inconclusive: 79.4 µM [inhibitor, partial curve]"
N#CC(C#N)C(c1ccsc1)c1c(-c2ccccc2)[nH][nH]c1=O (stereo not given),–,"inconclusive: 79.4 µM [inhibitor, partial curve]"
Cc1ccc(-n2cccc2/C=C2\C(=N)N3N=C(c4ccco4)SC3=NC2=O)cc1,–,"inconclusive: 39.8 µM [inhibitor, partial curve, poor fit]"
Cc1ccc(Nc2nc(N)c([N+](=O)[O-])c(NCCO)n2)cc1C,–,"inconclusive: 3.55 µM [inhibitor, full curve]"
Cc1nc2c(C#N)cnn2c2c1CCN(Cc1ccccc1)N2C,–,"inconclusive: 89.1 µM [inhibitor, single point]"
